According to US20250026782A1, “ACTIVATING APPENDAGES TO INDUCE POLYPHARMACOLOGY IN PEPTIDE HORMONE ANALOGUES, INCLUDING DUAL GLP-1R / GIP AGONISM” (Wisconsin Alumni Research Foundation, priority 2023, published 2025):
At least one compound was matched to its structure with a doubt left. Residues, ends and D or L forms follow the SMILES beside them. *: point of attachment. X3 = CC(CCCCC(=O)*)(c1ccc(O)cc1)c1ccc(O)cc1; X1 = CC(CC(=O)*)(c1ccc(O)cc1)c1ccc(O)cc1; X2 = CC(C(=O)*)(c1ccc(O)cc1)c1ccc(O)cc1

By UniProt entry, the sequences of proteins in these tests, tags left out. Residues count along the entry.
UniProt P43220, 24-463 limits assumed: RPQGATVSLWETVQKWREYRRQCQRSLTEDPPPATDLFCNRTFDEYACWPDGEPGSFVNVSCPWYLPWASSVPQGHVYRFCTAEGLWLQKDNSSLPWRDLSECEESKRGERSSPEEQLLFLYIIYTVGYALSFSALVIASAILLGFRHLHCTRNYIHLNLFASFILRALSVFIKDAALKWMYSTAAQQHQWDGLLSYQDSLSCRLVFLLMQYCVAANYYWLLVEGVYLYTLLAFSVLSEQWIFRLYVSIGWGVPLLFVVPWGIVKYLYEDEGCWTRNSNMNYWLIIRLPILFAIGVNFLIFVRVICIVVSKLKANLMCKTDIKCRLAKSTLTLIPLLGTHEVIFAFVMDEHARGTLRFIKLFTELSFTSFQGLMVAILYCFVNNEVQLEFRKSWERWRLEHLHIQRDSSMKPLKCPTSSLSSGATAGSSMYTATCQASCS

What follows are molecules tested against GLP-1R (Homo sapiens, UniProt P43220) (assay: EC50 (pM)).
In the case of `CC[C@H](C)[C@H](NC(=O)[C@H](CO)NC(=O)[C@H](CCCCNC(=O)CCCCC(C)(c1ccc(O)cc1)c1ccc(O)cc1)NC(=O)[C@H](CC(=O)O)NC(=O)[C@H](CO)NC(=O)[C@@H](NC(=O)[C@H](Cc1ccccc1)NC(=O)[C@@H](NC(=O)CNC(=O)[C@H](CCC(=O)O)NC(=O)[C@H](C)NC(=O)[C@@H](N)Cc1ccc(O)cc1)[C@@H](C)O)[C@@H](C)CC)C(=O)N[C@@H](C)C(=O)N[C@@H](CCSC)C(=O)N[C@@H](CC(=O)O)C(=O)N[C@@H](CCCCN)C(=O)N[C@H](C(=O)N[C@@H](Cc1c[nH]cn1)C(=O)N[C@@H](CCC(N)=O)C(=O)N[C@@H](CCC(N)=O)C(=O)N[C@@H](CC(=O)O)C(=O)N[C@@H](Cc1ccccc1)C(=O)N[C@H](C(=O)N[C@@H](CC(N)=O)C(=O)N[C@@H](Cc1c[nH]c2ccccc12)C(=O)N[C@@H](CC(C)C)C(=O)N[C@@H](CC(C)C)C(=O)N[C@@H](C)C(=O)N[C@@H](CCC(N)=O)C(=O)N[C@@H](CCCCN)C(N)=O)C(C)C)[C@@H](C)CC` [GIP K10 T=4] (H-YAEGTFISDK(X3)SIAMDKIHQQDFVNWLLAQK-NH2; N-terminus assumed), the EC50 is reported as 130 nM.
`CC[C@H](C)[C@H](NC(=O)[C@H](CO)NC(=O)[C@H](CCCCNC(=O)C(C)(c1ccc(O)cc1)c1ccc(O)cc1)NC(=O)[C@H](CC(=O)O)NC(=O)[C@H](CO)NC(=O)[C@@H](NC(=O)[C@H](Cc1ccccc1)NC(=O)[C@@H](NC(=O)CNC(=O)[C@H](CCC(=O)O)NC(=O)[C@H](C)NC(=O)[C@@H](N)Cc1ccc(O)cc1)[C@@H](C)O)[C@@H](C)CC)C(=O)N[C@@H](C)C(=O)N[C@@H](CCSC)C(=O)N[C@@H](CC(=O)O)C(=O)N[C@@H](CCCCN)C(=O)N[C@H](C(=O)N[C@@H](Cc1c[nH]cn1)C(=O)N[C@@H](CCC(N)=O)C(=O)N[C@@H](CCC(N)=O)C(=O)N[C@@H](CC(=O)O)C(=O)N[C@@H](Cc1ccccc1)C(=O)N[C@H](C(=O)N[C@@H](CC(N)=O)C(=O)N[C@@H](Cc1c[nH]c2ccccc12)C(=O)N[C@@H](CC(C)C)C(=O)N[C@@H](CC(C)C)C(=O)N[C@@H](C)C(=O)N[C@@H](CCC(N)=O)C(=O)N[C@@H](CCCCN)C(N)=O)C(C)C)[C@@H](C)CC` [GIP K10 T=0] (H-YAEGTFISDK(X2)SIAMDKIHQQDFVNWLLAQK-NH2; N-terminus assumed) gave an EC50 of 110 nM.
`CC[C@H](C)[C@H](NC(=O)[C@H](CO)NC(=O)[C@H](CCCCNC(=O)CC(C)(c1ccc(O)cc1)c1ccc(O)cc1)NC(=O)[C@H](CC(=O)O)NC(=O)[C@H](CO)NC(=O)[C@@H](NC(=O)[C@H](Cc1ccccc1)NC(=O)[C@@H](NC(=O)CNC(=O)[C@H](CCC(=O)O)NC(=O)[C@H](C)NC(=O)[C@@H](N)Cc1ccc(O)cc1)[C@@H](C)O)[C@@H](C)CC)C(=O)N[C@@H](C)C(=O)N[C@@H](CCSC)C(=O)N[C@@H](CC(=O)O)C(=O)N[C@@H](CCCCN)C(=O)N[C@H](C(=O)N[C@@H](Cc1c[nH]cn1)C(=O)N[C@@H](CCC(N)=O)C(=O)N[C@@H](CCC(N)=O)C(=O)N[C@@H](CC(=O)O)C(=O)N[C@@H](Cc1ccccc1)C(=O)N[C@H](C(=O)N[C@@H](CC(N)=O)C(=O)N[C@@H](Cc1c[nH]c2ccccc12)C(=O)N[C@@H](CC(C)C)C(=O)N[C@@H](CC(C)C)C(=O)N[C@@H](C)C(=O)N[C@@H](CCC(N)=O)C(=O)N[C@@H](CCCCN)C(N)=O)C(C)C)[C@@H](C)CC` [GIP K10 T=1] (H-YAEGTFISDK(X1)SIAMDKIHQQDFVNWLLAQK-NH2; N-terminus assumed) gave an EC50 of 180 nM.
